Values from PubChem BioAssay AID743121 (NCATS, 2013)

Purpose: 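Genes whose silencing strengthens cell killing by camptothecin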 (primary screen)
Cell system: MDA-MB-231 cells, a human breast cancer line
Reagents: single siRNA against human genes, 20 nM siRNA (0.8 pmol per well)
Duration: 120 h (drug added 48 h after transfection, read 72 h later)
Treatment: camptothecin 20 nM (about EC30) for 72 h; vehicle 0.1% DMSO in parallel plates
Measured: 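CellTiter-Glo ATP signal, scaled to control siRNA as percent viability; sensitisation given as log2 of untreated divided by camptothecin-treated viability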
Scale: log2 vehicle/camptothecin viability: higher = stronger sensitisation to camptothecin; viability with camptothecin: higher = more viable cells
Units: viability with camptothecin in % of control
Rule for the call: 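Each gene scored by redundant siRNA activity (RSA) over its individual siRNA ratios; a gene is called active at p < 0.001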
The whole screen tested about 26,000 reagents; shown is a part drawn at random. 167 of them (0.63%) were called active. 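Calls are per gene from RSA p-values that are not deposited; an individual active-marked siRNA can sensitise only weakly.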 A number with no mark means an inactive call. Not all columns of the deposit are shown.

CES4A (GeneID 283848) [SID164615143]
- log2 vehicle/camptothecin viability: -0.0879
- viability with camptothecin: 77.7

CES4A (GeneID 283848) [SID164615145]
- log2 vehicle/camptothecin viability: -0.444
- viability with camptothecin: 17.3

CES4A (GeneID 283848) [SID164615148]
- log2 vehicle/camptothecin viability: 0.173
- viability with camptothecin: 70

CSF1R (GeneID 1436) [SID164359983]
- log2 vehicle/camptothecin viability: -0.203
- viability with camptothecin: 52.2

CSF1R (GeneID 1436) [SID164359989]
- log2 vehicle/camptothecin viability: -0.379
- viability with camptothecin: 55.1

CSF1R (GeneID 1436) [SID164359990]
- log2 vehicle/camptothecin viability: 0.00433
- viability with camptothecin: 95

OPN3 (GeneID 23596) [SID164449036]
- log2 vehicle/camptothecin viability: -0.0634
- viability with camptothecin: 99.6

OPN3 (GeneID 23596) [SID164449038]
- log2 vehicle/camptothecin viability: -0.249
- viability with camptothecin: 87.5

OPN3 (GeneID 23596) [SID164449039]
- log2 vehicle/camptothecin viability: -0.344
- viability with camptothecin: 81.6

OPN3 (GeneID 23596) [SID164449040]
- log2 vehicle/camptothecin viability: -0.293
- viability with camptothecin: 116

RPS27A (GeneID 6233) [SID164386559]
- log2 vehicle/camptothecin viability: -0.548
- viability with camptothecin: 41.4

RPS27A (GeneID 6233) [SID164386560]
- log2 vehicle/camptothecin viability: -0.628
- viability with camptothecin: 45.4

RPS27A (GeneID 6233) [SID164386562]
- log2 vehicle/camptothecin viability: -0.574
- viability with camptothecin: 50.1

RPS27A (GeneID 6233) [SID164386563]
- log2 vehicle/camptothecin viability: -1.05
- viability with camptothecin: 65.3

TUBA1B (GeneID 10376) [SID164410571]
- log2 vehicle/camptothecin viability: -0.5
- viability with camptothecin: 86.1

TUBA1B (GeneID 10376) [SID164410573]
- log2 vehicle/camptothecin viability: -0.249
- viability with camptothecin: 96.5

TUBA1B (GeneID 10376) [SID164410574]
- log2 vehicle/camptothecin viability: -0.0561
- viability with camptothecin: 92.5

TUBA1B (GeneID 10376) [SID164410575]
- log2 vehicle/camptothecin viability: -0.507
- viability with camptothecin: 123

3 successive reagents already listed, for reference:
CES4A (GeneID 283848) [SID164615143]
- log2 vehicle/camptothecin viability: -0.0879
- viability with camptothecin: 77.7

CES4A (GeneID 283848) [SID164615145]
- log2 vehicle/camptothecin viability: -0.444
- viability with camptothecin: 17.3

CES4A (GeneID 283848) [SID164615148]
- log2 vehicle/camptothecin viability: 0.173
- viability with camptothecin: 70

More reagents follow.
TNNT1 (GeneID 7138) [SID164392265]
- log2 vehicle/camptothecin viability: -0.272
- viability with camptothecin: 107

TNNT1 (GeneID 7138) [SID164392267]
- log2 vehicle/camptothecin viability: -0.0565
- viability with camptothecin: 94

TNNT1 (GeneID 7138) [SID164392270]
- log2 vehicle/camptothecin viability: -0.456
- viability with camptothecin: 66.6

PRODH (GeneID 5625) [SID164382958]
- log2 vehicle/camptothecin viability: -0.121
- viability with camptothecin: 74.9

LHPP (GeneID 64077) [SID164500986]
- log2 vehicle/camptothecin viability: -0.921
- viability with camptothecin: 41.4

LHPP (GeneID 64077) [SID164500987]
- log2 vehicle/camptothecin viability: -0.312
- viability with camptothecin: 115

LHPP (GeneID 64077) [SID164500988]
- log2 vehicle/camptothecin viability: 1.03
- viability with camptothecin: 17

LHPP (GeneID 64077) [SID164500991]
- log2 vehicle/camptothecin viability: -0.14
- viability with camptothecin: 110

ATP1A3 (GeneID 478) [SID164354512]
- log2 vehicle/camptothecin viability: -0.485
- viability with camptothecin: 30.2

ATP1A3 (GeneID 478) [SID164354513]
- log2 vehicle/camptothecin viability: 0.209
- viability with camptothecin: 80.1

ATP1A3 (GeneID 478) [SID164354516]
- log2 vehicle/camptothecin viability: -0.228
- viability with camptothecin: 108

PDE7B (GeneID 27115) [SID164462501]
- log2 vehicle/camptothecin viability: -0.019
- viability with camptothecin: 106

PDE7B (GeneID 27115) [SID164462502]
- log2 vehicle/camptothecin viability: -0.103
- viability with camptothecin: 91.4

PDE7B (GeneID 27115) [SID164462503]
- log2 vehicle/camptothecin viability: 0.359
- viability with camptothecin: 58.2

PDE7B (GeneID 27115) [SID164462504]
- log2 vehicle/camptothecin viability: 0.12
- viability with camptothecin: 56.4

C5 (GeneID 727) [SID164355917]
- log2 vehicle/camptothecin viability: -0.0474
- viability with camptothecin: 102

C5 (GeneID 727) [SID164355921]
- log2 vehicle/camptothecin viability: -0.075
- viability with camptothecin: 64.6

C5 (GeneID 727) [SID164355922]
- log2 vehicle/camptothecin viability: -0.11
- viability with camptothecin: 89.3

C5 (GeneID 727) [SID164355923]
- log2 vehicle/camptothecin viability: -0.221
- viability with camptothecin: 94.6
